From the supplement of paper PMC12595434, “Development of retinoid nuclear receptor pathway antagonists through targeting aldehyde dehydrogenase 1A3” (iScience, 2025)
The list shows a part of the results. The data scatter; read single values as rough.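 Many melting curves are irregular; where none melted, Tm was taken as 64 °C.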

Chains of the proteins cited; added tags and fusions are not shown. Lines headed by an entry give the natural chain unless they say otherwise; changes in a name come on top.
UniProt Q9BZ23: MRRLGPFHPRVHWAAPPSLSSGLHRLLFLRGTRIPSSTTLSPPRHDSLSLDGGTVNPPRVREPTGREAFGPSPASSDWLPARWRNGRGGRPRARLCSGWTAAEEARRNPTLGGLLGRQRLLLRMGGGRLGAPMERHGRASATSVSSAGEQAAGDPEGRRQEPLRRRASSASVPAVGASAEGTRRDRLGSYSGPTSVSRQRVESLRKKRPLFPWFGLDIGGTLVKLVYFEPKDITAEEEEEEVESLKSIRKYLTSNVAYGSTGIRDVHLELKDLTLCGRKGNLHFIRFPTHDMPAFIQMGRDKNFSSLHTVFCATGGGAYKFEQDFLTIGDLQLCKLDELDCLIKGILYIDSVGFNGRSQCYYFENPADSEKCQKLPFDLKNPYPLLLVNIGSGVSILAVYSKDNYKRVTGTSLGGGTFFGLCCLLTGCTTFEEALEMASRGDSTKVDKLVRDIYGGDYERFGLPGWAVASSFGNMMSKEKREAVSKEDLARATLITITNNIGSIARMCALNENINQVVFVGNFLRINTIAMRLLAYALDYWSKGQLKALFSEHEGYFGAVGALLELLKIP
UniProt Q9H7D0, whole entry: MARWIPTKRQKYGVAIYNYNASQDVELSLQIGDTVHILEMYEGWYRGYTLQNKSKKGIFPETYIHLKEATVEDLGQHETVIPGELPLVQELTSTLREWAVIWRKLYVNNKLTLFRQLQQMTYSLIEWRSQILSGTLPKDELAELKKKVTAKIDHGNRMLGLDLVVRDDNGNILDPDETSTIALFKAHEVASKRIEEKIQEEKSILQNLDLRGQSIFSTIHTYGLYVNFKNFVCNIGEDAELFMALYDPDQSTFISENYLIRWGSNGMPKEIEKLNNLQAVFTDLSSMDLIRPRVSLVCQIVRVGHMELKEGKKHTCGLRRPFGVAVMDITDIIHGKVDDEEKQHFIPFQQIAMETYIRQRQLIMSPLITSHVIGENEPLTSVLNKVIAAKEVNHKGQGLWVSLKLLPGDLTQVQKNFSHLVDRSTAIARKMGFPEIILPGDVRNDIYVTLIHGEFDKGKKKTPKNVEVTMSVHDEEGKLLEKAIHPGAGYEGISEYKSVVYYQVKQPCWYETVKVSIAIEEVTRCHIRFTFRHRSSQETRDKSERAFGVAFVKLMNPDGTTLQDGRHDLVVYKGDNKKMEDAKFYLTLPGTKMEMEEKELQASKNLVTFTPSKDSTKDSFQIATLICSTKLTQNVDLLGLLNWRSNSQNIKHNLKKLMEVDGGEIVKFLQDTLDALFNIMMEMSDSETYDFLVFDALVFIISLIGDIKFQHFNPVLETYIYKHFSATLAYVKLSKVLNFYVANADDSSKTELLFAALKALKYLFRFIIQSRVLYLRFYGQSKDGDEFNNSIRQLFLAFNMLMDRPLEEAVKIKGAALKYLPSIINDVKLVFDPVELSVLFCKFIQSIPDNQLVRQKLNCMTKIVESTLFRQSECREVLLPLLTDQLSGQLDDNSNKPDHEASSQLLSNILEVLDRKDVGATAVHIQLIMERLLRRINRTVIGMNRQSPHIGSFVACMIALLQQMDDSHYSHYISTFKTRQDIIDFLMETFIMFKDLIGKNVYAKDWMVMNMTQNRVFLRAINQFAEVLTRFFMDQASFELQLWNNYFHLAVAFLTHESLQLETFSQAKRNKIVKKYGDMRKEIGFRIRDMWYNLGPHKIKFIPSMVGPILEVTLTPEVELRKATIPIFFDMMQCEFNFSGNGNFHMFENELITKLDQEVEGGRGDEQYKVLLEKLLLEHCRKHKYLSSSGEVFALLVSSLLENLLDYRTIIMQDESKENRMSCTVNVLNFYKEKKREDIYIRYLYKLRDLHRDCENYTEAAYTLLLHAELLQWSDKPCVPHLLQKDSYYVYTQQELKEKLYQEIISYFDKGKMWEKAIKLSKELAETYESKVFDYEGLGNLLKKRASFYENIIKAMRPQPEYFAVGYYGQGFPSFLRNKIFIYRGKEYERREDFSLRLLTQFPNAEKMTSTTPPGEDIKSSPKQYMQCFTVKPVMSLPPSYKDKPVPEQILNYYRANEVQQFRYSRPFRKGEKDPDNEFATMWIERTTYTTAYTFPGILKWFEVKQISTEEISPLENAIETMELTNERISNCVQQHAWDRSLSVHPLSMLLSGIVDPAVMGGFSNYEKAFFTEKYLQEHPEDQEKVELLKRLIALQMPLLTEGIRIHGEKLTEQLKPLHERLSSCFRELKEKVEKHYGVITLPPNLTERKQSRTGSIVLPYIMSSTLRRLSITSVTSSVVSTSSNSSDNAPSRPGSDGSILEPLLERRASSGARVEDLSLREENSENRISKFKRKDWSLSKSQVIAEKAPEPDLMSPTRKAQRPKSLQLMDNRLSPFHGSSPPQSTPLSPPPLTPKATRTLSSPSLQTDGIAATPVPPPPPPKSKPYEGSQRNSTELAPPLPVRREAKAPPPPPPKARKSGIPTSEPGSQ
UniProt Q9H583: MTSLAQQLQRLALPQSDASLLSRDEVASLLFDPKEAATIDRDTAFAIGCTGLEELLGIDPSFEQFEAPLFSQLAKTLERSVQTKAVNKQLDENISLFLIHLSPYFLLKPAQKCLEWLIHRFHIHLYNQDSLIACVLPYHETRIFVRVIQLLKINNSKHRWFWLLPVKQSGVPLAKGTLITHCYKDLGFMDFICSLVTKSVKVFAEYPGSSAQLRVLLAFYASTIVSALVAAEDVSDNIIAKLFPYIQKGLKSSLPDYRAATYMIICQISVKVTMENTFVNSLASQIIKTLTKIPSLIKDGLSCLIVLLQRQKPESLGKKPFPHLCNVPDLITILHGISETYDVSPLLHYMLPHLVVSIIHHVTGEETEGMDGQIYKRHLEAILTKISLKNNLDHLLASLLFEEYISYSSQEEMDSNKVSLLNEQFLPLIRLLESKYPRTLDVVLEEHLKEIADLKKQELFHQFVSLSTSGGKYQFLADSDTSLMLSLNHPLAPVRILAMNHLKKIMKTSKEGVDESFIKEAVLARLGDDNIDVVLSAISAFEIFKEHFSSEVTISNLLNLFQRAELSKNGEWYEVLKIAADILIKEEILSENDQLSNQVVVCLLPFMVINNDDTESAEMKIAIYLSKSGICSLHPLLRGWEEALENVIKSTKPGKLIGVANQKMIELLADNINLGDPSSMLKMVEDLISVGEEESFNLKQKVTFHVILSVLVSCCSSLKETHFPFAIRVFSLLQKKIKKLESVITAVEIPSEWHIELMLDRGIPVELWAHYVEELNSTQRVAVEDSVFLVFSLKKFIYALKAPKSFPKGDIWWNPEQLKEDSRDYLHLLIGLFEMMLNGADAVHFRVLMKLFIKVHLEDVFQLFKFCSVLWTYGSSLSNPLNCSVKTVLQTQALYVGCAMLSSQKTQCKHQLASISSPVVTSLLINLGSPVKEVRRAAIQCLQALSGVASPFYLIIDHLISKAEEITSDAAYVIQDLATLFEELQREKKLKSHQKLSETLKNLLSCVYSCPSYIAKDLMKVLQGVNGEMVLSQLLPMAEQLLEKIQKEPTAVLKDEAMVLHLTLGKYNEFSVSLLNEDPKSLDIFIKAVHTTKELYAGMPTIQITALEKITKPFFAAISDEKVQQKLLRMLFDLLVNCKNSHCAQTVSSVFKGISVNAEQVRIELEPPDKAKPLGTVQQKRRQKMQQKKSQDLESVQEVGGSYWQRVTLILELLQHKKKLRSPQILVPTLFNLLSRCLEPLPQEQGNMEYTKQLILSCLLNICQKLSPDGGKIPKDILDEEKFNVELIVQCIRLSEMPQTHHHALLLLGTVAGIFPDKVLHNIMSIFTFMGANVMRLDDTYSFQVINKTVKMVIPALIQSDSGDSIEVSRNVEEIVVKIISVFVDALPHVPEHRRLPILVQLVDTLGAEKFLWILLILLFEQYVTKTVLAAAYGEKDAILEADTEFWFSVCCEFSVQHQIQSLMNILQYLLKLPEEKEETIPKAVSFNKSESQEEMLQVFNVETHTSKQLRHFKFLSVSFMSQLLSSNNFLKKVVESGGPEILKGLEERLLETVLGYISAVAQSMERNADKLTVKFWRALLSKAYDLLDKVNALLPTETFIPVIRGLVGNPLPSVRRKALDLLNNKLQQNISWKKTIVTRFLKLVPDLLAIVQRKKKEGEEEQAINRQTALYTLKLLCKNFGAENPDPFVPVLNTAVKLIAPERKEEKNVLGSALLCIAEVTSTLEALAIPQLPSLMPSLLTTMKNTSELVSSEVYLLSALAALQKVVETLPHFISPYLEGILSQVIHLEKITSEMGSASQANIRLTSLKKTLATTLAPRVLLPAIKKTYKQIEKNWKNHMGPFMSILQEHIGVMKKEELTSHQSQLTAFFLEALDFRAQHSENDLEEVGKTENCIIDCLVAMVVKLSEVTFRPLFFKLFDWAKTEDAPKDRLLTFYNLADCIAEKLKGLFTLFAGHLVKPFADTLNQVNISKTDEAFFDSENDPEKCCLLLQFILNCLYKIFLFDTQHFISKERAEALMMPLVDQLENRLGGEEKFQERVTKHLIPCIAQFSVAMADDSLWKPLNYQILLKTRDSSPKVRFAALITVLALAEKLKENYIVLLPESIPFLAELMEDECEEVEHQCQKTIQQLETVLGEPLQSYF
UniProt Q9GZY4: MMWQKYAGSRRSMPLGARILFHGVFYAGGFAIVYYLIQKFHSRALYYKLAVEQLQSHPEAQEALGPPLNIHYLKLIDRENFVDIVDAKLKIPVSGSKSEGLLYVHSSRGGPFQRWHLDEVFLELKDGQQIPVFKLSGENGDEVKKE
UniProt Q9H3Q1: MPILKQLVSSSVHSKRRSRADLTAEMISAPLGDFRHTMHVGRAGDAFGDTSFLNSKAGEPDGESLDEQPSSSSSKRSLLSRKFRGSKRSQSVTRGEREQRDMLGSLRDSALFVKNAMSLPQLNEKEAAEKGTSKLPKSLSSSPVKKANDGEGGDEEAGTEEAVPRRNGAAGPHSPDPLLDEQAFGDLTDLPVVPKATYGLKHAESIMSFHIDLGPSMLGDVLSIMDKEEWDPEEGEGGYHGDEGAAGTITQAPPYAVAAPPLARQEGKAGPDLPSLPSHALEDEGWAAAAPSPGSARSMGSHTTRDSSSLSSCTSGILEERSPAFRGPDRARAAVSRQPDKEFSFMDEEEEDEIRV
UniProt Q9H8H0: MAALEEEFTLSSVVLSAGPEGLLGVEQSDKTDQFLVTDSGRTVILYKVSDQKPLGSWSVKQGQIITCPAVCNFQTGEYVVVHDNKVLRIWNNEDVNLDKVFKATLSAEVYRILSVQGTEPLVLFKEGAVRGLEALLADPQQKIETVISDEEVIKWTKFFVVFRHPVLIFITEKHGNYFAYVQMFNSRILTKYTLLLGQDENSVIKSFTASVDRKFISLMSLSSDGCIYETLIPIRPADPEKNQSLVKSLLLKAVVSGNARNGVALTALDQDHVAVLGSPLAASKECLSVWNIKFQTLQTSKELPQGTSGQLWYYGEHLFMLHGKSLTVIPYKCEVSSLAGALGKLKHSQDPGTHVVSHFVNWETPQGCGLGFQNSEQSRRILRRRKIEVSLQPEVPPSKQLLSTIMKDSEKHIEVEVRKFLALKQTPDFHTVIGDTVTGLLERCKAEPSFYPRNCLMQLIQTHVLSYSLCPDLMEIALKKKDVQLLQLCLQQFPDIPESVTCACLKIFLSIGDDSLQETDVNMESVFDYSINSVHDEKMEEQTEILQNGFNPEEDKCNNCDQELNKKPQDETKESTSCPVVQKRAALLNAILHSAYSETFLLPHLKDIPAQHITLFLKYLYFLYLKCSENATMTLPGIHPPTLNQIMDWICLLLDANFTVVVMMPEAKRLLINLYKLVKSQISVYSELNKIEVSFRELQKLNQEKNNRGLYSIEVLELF
UniProt Q9H7L9: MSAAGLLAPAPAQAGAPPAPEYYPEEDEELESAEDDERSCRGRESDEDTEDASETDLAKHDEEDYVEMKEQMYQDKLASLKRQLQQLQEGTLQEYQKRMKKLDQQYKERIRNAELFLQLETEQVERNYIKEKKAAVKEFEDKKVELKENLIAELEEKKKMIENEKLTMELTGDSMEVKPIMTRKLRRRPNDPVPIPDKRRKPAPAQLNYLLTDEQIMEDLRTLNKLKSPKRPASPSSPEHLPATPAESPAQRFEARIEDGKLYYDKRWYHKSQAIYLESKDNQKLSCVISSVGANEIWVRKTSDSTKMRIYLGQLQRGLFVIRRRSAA
UniProt Q9H8K7: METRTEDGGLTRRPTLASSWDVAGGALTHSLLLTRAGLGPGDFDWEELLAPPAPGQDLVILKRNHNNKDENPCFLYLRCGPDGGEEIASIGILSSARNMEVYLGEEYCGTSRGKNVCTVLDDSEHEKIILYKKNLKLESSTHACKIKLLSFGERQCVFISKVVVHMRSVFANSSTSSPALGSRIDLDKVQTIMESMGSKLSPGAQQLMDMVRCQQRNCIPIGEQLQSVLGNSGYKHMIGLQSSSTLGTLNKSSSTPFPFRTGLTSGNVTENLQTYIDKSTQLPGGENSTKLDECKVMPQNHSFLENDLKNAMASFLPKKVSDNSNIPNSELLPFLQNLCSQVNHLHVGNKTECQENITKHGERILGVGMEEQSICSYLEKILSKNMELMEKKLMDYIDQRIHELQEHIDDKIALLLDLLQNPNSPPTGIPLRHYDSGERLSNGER

Compound: CCc1cnccc1C(=O)Nc1cc2c(cc1F)NC(=O)CC2
Test: melting temperature shift (DMSO Tm minus MBE1-treated Tm) in cellular thermal proteome profiling; higher = less thermal stabilization by MBE1 (negative = stabilized by MBE1)
Conditions: A375

Target | melting temperature shift (MBE1 concentration: 100 nM) | melting temperature shift (MBE1 concentration: 1 uM)
PANK2 (UniProt Q9BZ23) | -0.807 °C | 0.104 °C
NO66 (UniProt Q9H6W3) | -1.3 °C | -1.01 °C
DOCK5 (UniProt Q9H7D0) | 0.379 °C | -0.0366 °C
UniProt Q9H1A3 | 0.08 °C | 0.104 °C
PTPN23 (UniProt Q9H3S7) | -0.63 °C | -0.729 °C
RPAP3 (UniProt Q9H6T3) | 1 °C | 0.458 °C
UBXN6 (UniProt Q9BZV1) | -0.724 °C | -0.647 °C
PRKD2 (UniProt Q9BZL6) | 0.0753 °C | 0.00941 °C
MIS12 (UniProt Q9H081) | 0.354 °C | 0.812 °C
TRIT1 (UniProt Q9H3H1) | -0.48 °C | -0.545 °C
MRPL46 (UniProt Q9H2W6) | 0.806 °C | 0.861 °C
KAT8 (UniProt Q9H7Z6) | -1.3 °C | 0.032 °C
NUF2 (UniProt Q9BZD4) | -0.275 °C | -0.0897 °C
UniProt Q9BZF3 | -0.395 °C | -0.0612 °C
HEATR1 (UniProt Q9H583) | -0.63 °C | 0.0235 °C
COMMD5 (UniProt Q9GZQ3) | -0.436 °C | -0.443 °C
ZYG11B (UniProt Q9C0D3) | 0.183 °C | 0.556 °C
UBA5 (UniProt Q9GZZ9) | -0.49 °C | 0.235 °C
RNPEP (UniProt Q9H4A4) | -0.215 °C | 0.0427 °C
COA1 (UniProt Q9GZY4) | -0.597 °C | 1.1 °C
UniProt Q9H6R3 | -0.449 °C | -1.4 °C
WDR12 (UniProt Q9GZL7) | -1.19 °C | 0.255 °C
CDC42EP4 (UniProt Q9H3Q1) | -1.57 °C | 0.104 °C
UniProt Q9H0R3 | -2.15 °C | -3.29 °C
ACTR6 (UniProt Q9GZN1) | -0.772 °C | -0.616 °C
DHX36 (UniProt Q9H2U1) | 1.34 °C | 0.922 °C
UniProt Q9H6U8 | -0.597 °C | 0.0469 °C

Target | melting temperature shift (MBE1 concentration: 100 nM) | melting temperature shift (MBE1 concentration: 1 uM)
DDX24 (UniProt Q9GZR7) | 0.348 °C | 0.708 °C
LNP (UniProt Q9C0E8) | -2.11 °C | -2.79 °C
PTGES2 (UniProt Q9H7Z7) | -0.946 °C | 0.443 °C
UniProt Q9GZM8 | 1.14 °C | 1.34 °C
UniProt Q9GZN7 | -0.72 °C | -0.757 °C
ESF1 (UniProt Q9H501) | -0.115 °C | -0.122 °C
TANGO6 (UniProt Q9C0B7) | 1.04 °C | 0.403 °C
ARL6 (UniProt Q9H0F7) | -0.165 °C | 0.727 °C
UniProt Q9H0F6 | -1.91 °C | -0.747 °C
OSBPL2 (UniProt Q9H1P3) | -0.781 °C | -0.414 °C
SH3BGRL3 (UniProt Q9H299) | 0.678 °C | 0.635 °C
KLC2 (UniProt Q9H0B6) | 0.153 °C | -0.195 °C
PARP12 (UniProt Q9H0J9) | -0.186 °C | -0.429 °C
YTHDC2 (UniProt Q9H6S0) | -0.804 °C | -0.506 °C
CNNM2 (UniProt Q9H8M5) | 0.797 °C | 0.194 °C
ADNP (UniProt Q9H2P0) | -0.282 °C | -0.263 °C
UniProt Q9H8S9 | -0.67 °C | 0.0402 °C
TDRD3 (UniProt Q9H7E2) | 1.04 °C | -0.0305 °C
FAM234A (UniProt Q9H0X4) | -4.32 °C | -2.33 °C
UBE2O (UniProt Q9C0C9) | 0.592 °C | 0.415 °C
GOLPH3 (UniProt Q9H4A6) | -0.927 °C | 0.293 °C
KCTD10 (UniProt Q9H3F6) | -2.03 °C | 0.758 °C
SRXN1 (UniProt Q9BYN0) | 0.977 °C | 0.941 °C
UniProt Q9H869 | -0.0384 °C | -0.25 °C
UPF3B (UniProt Q9BZI7) | -0.53 °C | 1.03 °C
UNC45A (UniProt Q9H3U1) | -1.12 °C | -0.349 °C
RACGAP1 (UniProt Q9H0H5) | -1.54 °C | -0.847 °C

Target | melting temperature shift (MBE1 concentration: 100 nM) | melting temperature shift (MBE1 concentration: 1 uM)
BLZF1 (UniProt Q9H2G9) | 0.684 °C | -0.348 °C
UniProt Q9H147 | -0.833 °C | -0.73 °C
GHITM (UniProt Q9H3K2) | -2.07 °C | -0.449 °C
CSTF2T (UniProt Q9H0L4) | 2.49 °C | -0.409 °C
TOR3A (UniProt Q9H497) | -1.51 °C | 0.443 °C
EDEM3 (UniProt Q9BZQ6) | -0.49 °C | 1.03 °C
SPNS1 (UniProt Q9H2V7) | -2.68 °C | -0.0366 °C
UniProt Q9H7P9 | -1.83 °C | -2.42 °C
BRD9 (UniProt Q9H8M2) | -0.34 °C | -0.365 °C
VPS16 (UniProt Q9H269) | 0.221 °C | -0.226 °C
EPB41L1 (UniProt Q9H4G0) | -0.57 °C | -0.39 °C
C11ORF54 (UniProt Q9H0W9) | 0.0378 °C | -1.11 °C
UBE2Z (UniProt Q9H832) | -0.235 °C | 0.147 °C
ACBD3 (UniProt Q9H3P7) | 0.0427 °C | -0.488 °C
UniProt Q9C0H9 | 4.96 °C | 4.3 °C
BOLA2 (UniProt Q9H3K6) | -0.0402 °C | -0.624 °C
OSBPL8 (UniProt Q9BZF1) | -0.108 °C | -0.193 °C
FAM129A (UniProt Q9BZQ8) | -0.0916 °C | -0.69 °C
CUEDC2 (UniProt Q9H467) | -1.21 °C | 0.311 °C
UniProt Q9H7B2 | 1.07 °C | 0.623 °C
PARL (UniProt Q9H300) | 0.171 °C | 1.52 °C
UniProt Q9H3G5 | -1.77 °C | -0.981 °C
GOLPH3L (UniProt Q9H4A5) | -0.979 °C | -0.362 °C
TRIM5 (UniProt Q9C035) | -0.899 °C | -0.0612 °C
GAN (UniProt Q9H2C0) | 0.805 °C | 2.82 °C
NOL11 (UniProt Q9H8H0) | -0.88 °C | 0.0671 °C
METTL7A (UniProt Q9H8H3) | 0.301 °C | -1.44 °C

Target | melting temperature shift (MBE1 concentration: 100 nM) | melting temperature shift (MBE1 concentration: 1 uM)
UniProt Q9H116 | -0.765 °C | 2.63 °C
UniProt Q9H7L9 | -0.736 °C | -0.296 °C
TRIM4 (UniProt Q9C037) | 1.83 °C | -0.464 °C
MTG2 (UniProt Q9H4K7) | -0.653 °C | -0.519 °C
C11ORF68 (UniProt Q9H3H3) | -0.617 °C | 0.55 °C
UniProt Q9H7N4 | -2.33 °C | -1.69 °C
FTO (UniProt Q9C0B1) | -1.03 °C | 0.22 °C
RABEP2 (UniProt Q9H5N1) | -0.0423 °C | -0.226 °C
ZHX3 (UniProt Q9H4I2) | -1.64 °C | -0.545 °C
UniProt Q9H3L0 | 0.047 °C | -0.499 °C
UniProt Q9C086 | -0.551 °C | -0.301 °C
SLC38A1 (UniProt Q9H2H9) | -0.0174 °C | 0.131 °C
RAB1B (UniProt Q9H0U4) | -1.37 °C | -0.711 °C
API5 (UniProt Q9BZZ5) | -0.168 °C | -0.121 °C
TUT1 (UniProt Q9H6E5) | -0.0705 °C | 0.308 °C
UniProt Q9H0Q0 | -0.376 °C | 13.4 °C
SLC25A32 (UniProt Q9H2D1) | -1.24 °C | -1.28 °C
ATP13A3 (UniProt Q9H7F0) | -0.812 °C | -0.0469 °C
MRPL9 (UniProt Q9BYD2) | -3.87 °C | -3.21 °C
UniProt Q9BZG1 | -0.966 °C | -0.0469 °C
ASPSCR1 (UniProt Q9BZE9) | 0.277 °C | 0.592 °C
UniProt Q9H8K7 | -0.107 °C | 0.751 °C
KATNBL1 (UniProt Q9H079) | 0.287 °C | 0.971 °C
UniProt Q9H7X7 | -0.113 °C | -0.588 °C

As a short view, part of the list above:
Target | melting temperature shift (MBE1 concentration: 100 nM) | melting temperature shift (MBE1 concentration: 1 uM)
RAB1B (UniProt Q9H0U4) | -1.37 °C | -0.711 °C
API5 (UniProt Q9BZZ5) | -0.168 °C | -0.121 °C
TUT1 (UniProt Q9H6E5) | -0.0705 °C | 0.308 °C
UniProt Q9H0Q0 | -0.376 °C | 13.4 °C
SLC25A32 (UniProt Q9H2D1) | -1.24 °C | -1.28 °C
ATP13A3 (UniProt Q9H7F0) | -0.812 °C | -0.0469 °C
MRPL9 (UniProt Q9BYD2) | -3.87 °C | -3.21 °C
